PubChem BioAssay AID252 (DTP/NCI, 2004)
The list does not hold the whole screen: it gathers tests that were run many times, whatever their T/C, doses with no T/C, and many T/C values between a quarter and a half above the control. Further doses and runs are listed elsewhere. T/C is the treated group as % of the vehicle group. Some entries give survivors of the animals treated and no T/C: the source holds a T/C of zero for them, seemingly a mark for toxic or unscored doses. Some doses without a T/C left all or most animals alive at the check, yet need not have been tolerated: survival well below the control is almost never listed, so the zero probably covers shortened survival too. Counts of survivors are from the toxicity check (mostly the fifth day) where no day follows; animals may have died later. Schedule codes are those of the source, read here as Q, the interval in days (D) or hours (H), X, the number of doses. Some schedule codes hold Z or #, which are not explained here. Where survival is the endpoint, the PubChem record calls one and a half times the control and up active, and a quarter to a half above the control has no call in these data; cut-offs in other NCI protocols can differ. Some entries were tested several times; the values are given in rising order. Some T/C values are followed by the survivors on the day toxicity was checked, most often the fifth; without a count, all were alive then.

Test system: BDF1 mice, intracerebral L1210 leukemia, survival T/C
Test: NCI In Vivo Anticancer Drug Screen. Data for tumor model L1210 Leukemia (intracerebral) in B6D2F1 (BDF1) mice
Details: higher T/C = longer survival
Procedure: The antitumor activity of compounds was measured in mice bearing transplantable tumors. Survival or tumor size were measured and the results are expressed as the measurement made in the treated group (T) divided by the measurement made in the vehicle treated control group (C). The tumor model used in this assay is L1210 Leukemia (intracerebral) in B6D2F1 (BDF1) mice

[1] = T/C endpoint: mean survival time, dose: 50.0 mg/kg/injection, schedule: Q04DX003 (ip), vehicle: saline
[2] = T/C endpoint: mean survival time, dose: 500.0 mg/kg/injection, schedule: Q01DX Z (ip), vehicle: carboxymethylcellulose (CMC)
[3] = T/C endpoint: mean survival time, dose: 3.0 mg/kg/injection, schedule: Q01DX009 (ip), vehicle: saline

COc1cc([C@@H]2c3cc4c(cc3[C@@H](OC3OC5COC(C)OC5C(O)C3O)[C@H]3COC(=O)[C@H]23)OCO4)cc(OC)c1O (some centres undefined)
T/C (T/C endpoint: mean survival time, dose: 8.0 mg/kg/injection, schedule: Q01DX009 (oral), vehicle: Klucel (hydroxypropylcellulose) (HPC)): 127 % of control

COC(=O)c1ccccc1N=NN(C)C
survivor count (T/C endpoint: median survival time, dose: 40.0 mg/kg/injection, schedule: Q01DX009 (ip), vehicle: saline with Tween-80): 0 of 10
survivor count (T/C endpoint: median survival time, dose: 80.0 mg/kg/injection, schedule: Q01DX009 (ip), vehicle: saline with Tween-80): 0 of 10
survivor count (T/C endpoint: median survival time, dose: 160.0 mg/kg/injection, schedule: Q01DX009 (ip), vehicle: saline with Tween-80): 0 of 10

COc1cc(NS(C)(=O)=O)ccc1Nc1c2cccc(C)c2nc2c(C)cccc12
T/C (T/C endpoint: mean survival time, dose: 12.5 mg/kg/injection, schedule: Q01DX009 (ip), vehicle: water): 126 % of control
survivor count (T/C endpoint: mean survival time, dose: 50.0 mg/kg/injection, schedule: Q01DX009 (ip), vehicle: water): 7 of 10
T/C (T/C endpoint: mean survival time, dose: 400.0 mg/kg/injection, schedule: Q01DX001 (ip), vehicle: saline): 126 % of control

O=c1n(CC2CO2)c(=O)n(CC2CO2)c(=O)n1CC1CO1 (centres undefined)
T/C (T/C endpoint: median survival time, dose: 30.0 mg/kg/injection, schedule: Q01DX009 (ip), vehicle: saline): 132 % of control
T/C (T/C endpoint: median survival time, dose: 50.0 mg/kg/injection, schedule: Q01DX009 (ip), vehicle: saline): 132 % of control

C=CCOCCN1CCN(CCCN2c3ccccc3Sc3ccc(C(F)(F)F)cc32)CC1
survivor count (T/C endpoint: mean survival time, dose: 3.12 mg/kg/injection, schedule: Q01DX009 (ip), vehicle: saline): 2 of 6
survivor count (T/C endpoint: mean survival time, dose: 6.25 mg/kg/injection, schedule: Q01DX009 (ip), vehicle: saline): 3 of 6
survivor count (T/C endpoint: mean survival time, dose: 12.5 mg/kg/injection, schedule: Q01DX009 (ip), vehicle: saline): 0 of 6
survivor count (T/C endpoint: mean survival time, dose: 25.0 mg/kg/injection, schedule: Q04DX003 (ip), vehicle: saline): 4 of 6
survivor count (T/C endpoint: mean survival time, dose: 35.0 mg/kg/injection, schedule: Q04DX003 (ip), vehicle: saline): 2 of 6
survivor count [1]: 1 of 6

CN(Cc1cnc2nc(N)nc(N)c2n1)c1ccc(C(=O)N[C@@H](CCC(=O)O)C(=O)O)cc1
T/C (T/C endpoint: mean survival time, dose: 1.08 mg/kg/injection, schedule: Q01DX009 (ip), vehicle: sodium bicarbonate): 131 % of control [9 of 10 alive]
T/C (T/C endpoint: mean survival time, dose: 1.8 mg/kg/injection, schedule: Q01DX009 (ip), vehicle: sodium bicarbonate): 127 % of control [9 of 10 alive]
T/C (T/C endpoint: mean survival time, dose: 2.5 mg/kg/injection, schedule: Q01DX009 (ip), vehicle: other): 146 % of control
T/C (T/C endpoint: mean survival time, dose: 5.0 mg/kg/injection, schedule: Q01DX009 (ip), vehicle: other): 140 % of control
survivor count (T/C endpoint: mean survival time, dose: 8.4 mg/kg/injection, schedule: Q01DX009 (ip), vehicle: sodium bicarbonate): 6 of 10
T/C (T/C endpoint: median survival time, dose: 2.0 mg/kg/injection, schedule: Q01DX009 (ip), vehicle: sodium bicarbonate): 125 % of control
survivor count (T/C endpoint: median survival time, dose: 4.0 mg/kg/injection, schedule: Q01DX009 (ip), vehicle: sodium bicarbonate): 7 of 8

O=NN(CCCl)C(=O)N[C@H]1CCCC[C@@H]1Cl
T/C (T/C endpoint: mean survival time, dose: 13.0 mg/kg/injection, schedule: Q01DX001 (ip), vehicle: carboxymethylcellulose (CMC)): 131 % of control
T/C (T/C endpoint: mean survival time, dose: 19.0 mg/kg/injection, schedule: Q01DX001 (ip), vehicle: carboxymethylcellulose (CMC)): 126 % of control
T/C (T/C endpoint: mean survival time, dose: 61.0 mg/kg/injection, schedule: Q01DX001 (ip), vehicle: other): 149 % of control
survivor count (T/C endpoint: mean survival time, dose: 91.5 mg/kg/injection, schedule: Q01DX001 (ip), vehicle: carboxymethylcellulose (CMC)): 6 of 10

O=NN(CCF)C(=O)NC1CCC(NC(=O)N(CCF)N=O)CC1 (centres undefined)
T/C (T/C endpoint: mean survival time, dose: 20.0 mg/kg/injection, schedule: Q01DX001 (ip), vehicle: other): 137 % of control
T/C (T/C endpoint: mean survival time, dose: 250.0 mg/kg/injection, schedule: Q01DX001 (ip), vehicle: other): 126 % of control [9 of 10 alive]
survivor count (T/C endpoint: mean survival time, dose: 375.0 mg/kg/injection, schedule: Q01DX001 (ip), vehicle: other): 3 of 10

O=C(Nc1ccc(C2=NCCN2)cc1)c1ccc(C(=O)Nc2ccc(C3=NCCN3)cc2)cc1
survivor count [2]: 1 of 6

O=NN(CCBr)C(=O)NCCBr
T/C (T/C endpoint: mean survival time, dose: 200.0 mg/kg/injection, schedule: Q01DX001 (ip), vehicle: carboxymethylcellulose (CMC)): 139 % of control [8 of 10 alive]
survivor count (T/C endpoint: mean survival time, dose: 300.0 mg/kg/injection, schedule: Q01DX001 (ip), vehicle: carboxymethylcellulose (CMC)): 0 of 10
survivor count (T/C endpoint: mean survival time, dose: 450.0 mg/kg/injection, schedule: Q01DX001 (ip), vehicle: carboxymethylcellulose (CMC)): 0 of 10

CC1(NC(=O)N(CCCl)N=O)CCCC1
survivor count (T/C endpoint: mean survival time, dose: 375.0 mg/kg/injection, schedule: Q01DX001 (ip), vehicle: carboxymethylcellulose (CMC)): 10 of 10

O=NN(CCO)C(=O)Nc1c[nH]c(=O)[nH]c1=O
survivor count (T/C endpoint: mean survival time, dose: 600.0 mg/kg/injection, schedule: Q01DX001 (ip), vehicle: carboxymethylcellulose (CMC)): 4 of 10

CC(=O)Nc1ccc2nc3ccc(NC(C)=O)cc3[n+](-c3ccccc3)c2c1
survivor count (T/C endpoint: mean survival time, dose: 375.0 mg/kg/injection, schedule: Q01DX Z (ip), vehicle: carboxymethylcellulose (CMC)): 5 of 6
survivor count [2]: 3 of 6
survivor count (T/C endpoint: mean survival time, dose: 750.0 mg/kg/injection, schedule: Q01DX Z (ip), vehicle: carboxymethylcellulose (CMC)): 6 of 6
survivor count (T/C endpoint: mean survival time, dose: 1000.0 mg/kg/injection, schedule: Q01DX Z (ip), vehicle: carboxymethylcellulose (CMC)): 5 of 6

OCCN1CCN(CC/C=C2/c3ccccc3Sc3ccc(C(F)(F)F)cc32)CC1
survivor count [1]: 6 of 6

CCNC1=C(N2CC2)C(=O)C(NCC)=C(N2CC2)C1=O
T/C (T/C endpoint: mean survival time, dose: 0.75 mg/kg/injection, schedule: Q01DX009 (ip), vehicle: saline): 135 % of control
T/C (T/C endpoint: mean survival time, dose: 1.5 mg/kg/injection, schedule: Q01DX009 (ip), vehicle: saline): 125 and 130 % of control
T/C [3]: 140 and 144 % of control
survivor count [3]: 6 of 6
survivor count (T/C endpoint: mean survival time, dose: 6.0 mg/kg/injection, schedule: Q01DX009 (ip), vehicle: saline): 5 of 6
survivor count (T/C endpoint: mean survival time, dose: 12.0 mg/kg/injection, schedule: Q01DX009 (ip), vehicle: saline): 4 of 6

S=C=NCCc1ccccc1
survivor count (T/C endpoint: mean survival time, dose: 100.0 mg/kg/injection, schedule: Q01DX009 (ip), vehicle: saline with Tween-80): 4 of 6

C[C@@H](CN1CC(=O)NC(=O)C1)N1CC(=O)NC(=O)C1
T/C (T/C endpoint: median survival time, dose: 32.0 mg/kg/injection, schedule: Q01DX009 (ip), vehicle: water, evaluated on day 30): 131 % of control
T/C (T/C endpoint: median survival time, dose: 32.0 mg/kg/injection, schedule: Q01DX009 (ip), vehicle: water, evaluated on day 31): 128 % of control
T/C (T/C endpoint: median survival time, dose: 32.0 mg/kg/injection, schedule: Q01DX009 (ip), vehicle: water, evaluated on day 36): 126 % of control [8 of 10 alive]
T/C (T/C endpoint: median survival time, dose: 64.0 mg/kg/injection, schedule: Q01DX009 (ip), vehicle: water, evaluated on day 30): 146 % of control
T/C (T/C endpoint: median survival time, dose: 64.0 mg/kg/injection, schedule: Q01DX009 (ip), vehicle: water, evaluated on day 31): 131 % of control
T/C (T/C endpoint: median survival time, dose: 64.0 mg/kg/injection, schedule: Q01DX009 (ip), vehicle: water, evaluated on day 36): 132 % of control [9 of 10 alive]
T/C (T/C endpoint: median survival time, dose: 128.0 mg/kg/injection, schedule: Q01DX009 (ip), vehicle: water): 138 % of control
T/C (T/C endpoint: median survival time, dose: 256.0 mg/kg/injection, schedule: Q01DX009 (ip), vehicle: water): 146 % of control

CN1CCN(CCCN2c3ccccc3Sc3ccc(C(F)(F)F)cc32)CC1
survivor count (T/C endpoint: mean survival time, dose: 66.0 mg/kg/injection, schedule: Q04DX003 (ip), vehicle: water): 5 of 8
survivor count (T/C endpoint: mean survival time, dose: 100.0 mg/kg/injection, schedule: Q04DX003 (ip), vehicle: water): 3 of 8
survivor count (T/C endpoint: mean survival time, dose: 150.0 mg/kg/injection, schedule: Q04DX003 (ip), vehicle: water): 0 of 8

O=NN(CCCl)C(=O)NC1CCCCCCCCCCC1
T/C (T/C endpoint: mean survival time, dose: 555.0 mg/kg/injection, schedule: Q01DX001 (ip), vehicle: other): 142 % of control
T/C (T/C endpoint: mean survival time, dose: 838.0 mg/kg/injection, schedule: Q01DX001 (ip), vehicle: other): 136 and 146 % of control
T/C (T/C endpoint: mean survival time, dose: 1192.0 mg/kg/injection, schedule: Q01DX001 (ip), vehicle: other): 147 % of control [9 of 10 alive]
T/C (T/C endpoint: mean survival time, dose: 1875.0 mg/kg/injection, schedule: Q01DX001 (ip), vehicle: other): 129 % of control

CCOC(=O)C1(NC(=O)N(CCCl)N=O)CCCCC1
T/C (T/C endpoint: mean survival time, dose: 125.0 mg/kg/injection, schedule: Q01DX001 (ip), vehicle: other): 129 % of control

C=CCNC(=O)NCC=C
survivor count (T/C endpoint: mean survival time, dose: 400.0 mg/kg/injection, schedule: Q01DX009 (ip), vehicle: saline): 3 of 8
